Like-named read-outs stand apart in the source and are kept apart here. No constants are given. Whether binding was seen depends on the method and setting. In cells and extracts the contact can be indirect. Here binding means that the protein was enriched with, or labelled near, the bait; the list need not be complete. Tags and fused reporters may be left off the sequences shown. Each block holds one molecule with its values, some of them ahead of it.
Tests used:
Flag-Rab40b-4A [1] = molecular target: T1, Flag-Rab40b-4A (UniProt Q12829); assay: affinity purification with mass spectrometry
T1 sequence: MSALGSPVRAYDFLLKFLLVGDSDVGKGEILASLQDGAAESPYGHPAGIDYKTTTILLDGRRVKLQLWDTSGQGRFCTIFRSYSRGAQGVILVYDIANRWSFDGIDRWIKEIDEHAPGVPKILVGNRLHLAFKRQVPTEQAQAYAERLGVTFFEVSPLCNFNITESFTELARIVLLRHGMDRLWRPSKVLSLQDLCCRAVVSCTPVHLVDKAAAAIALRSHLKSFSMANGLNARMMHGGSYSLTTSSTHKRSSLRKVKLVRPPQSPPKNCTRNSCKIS

Protein sequences, listed by entry. Tags and fused reporters are not part of them.
UniProt O60610: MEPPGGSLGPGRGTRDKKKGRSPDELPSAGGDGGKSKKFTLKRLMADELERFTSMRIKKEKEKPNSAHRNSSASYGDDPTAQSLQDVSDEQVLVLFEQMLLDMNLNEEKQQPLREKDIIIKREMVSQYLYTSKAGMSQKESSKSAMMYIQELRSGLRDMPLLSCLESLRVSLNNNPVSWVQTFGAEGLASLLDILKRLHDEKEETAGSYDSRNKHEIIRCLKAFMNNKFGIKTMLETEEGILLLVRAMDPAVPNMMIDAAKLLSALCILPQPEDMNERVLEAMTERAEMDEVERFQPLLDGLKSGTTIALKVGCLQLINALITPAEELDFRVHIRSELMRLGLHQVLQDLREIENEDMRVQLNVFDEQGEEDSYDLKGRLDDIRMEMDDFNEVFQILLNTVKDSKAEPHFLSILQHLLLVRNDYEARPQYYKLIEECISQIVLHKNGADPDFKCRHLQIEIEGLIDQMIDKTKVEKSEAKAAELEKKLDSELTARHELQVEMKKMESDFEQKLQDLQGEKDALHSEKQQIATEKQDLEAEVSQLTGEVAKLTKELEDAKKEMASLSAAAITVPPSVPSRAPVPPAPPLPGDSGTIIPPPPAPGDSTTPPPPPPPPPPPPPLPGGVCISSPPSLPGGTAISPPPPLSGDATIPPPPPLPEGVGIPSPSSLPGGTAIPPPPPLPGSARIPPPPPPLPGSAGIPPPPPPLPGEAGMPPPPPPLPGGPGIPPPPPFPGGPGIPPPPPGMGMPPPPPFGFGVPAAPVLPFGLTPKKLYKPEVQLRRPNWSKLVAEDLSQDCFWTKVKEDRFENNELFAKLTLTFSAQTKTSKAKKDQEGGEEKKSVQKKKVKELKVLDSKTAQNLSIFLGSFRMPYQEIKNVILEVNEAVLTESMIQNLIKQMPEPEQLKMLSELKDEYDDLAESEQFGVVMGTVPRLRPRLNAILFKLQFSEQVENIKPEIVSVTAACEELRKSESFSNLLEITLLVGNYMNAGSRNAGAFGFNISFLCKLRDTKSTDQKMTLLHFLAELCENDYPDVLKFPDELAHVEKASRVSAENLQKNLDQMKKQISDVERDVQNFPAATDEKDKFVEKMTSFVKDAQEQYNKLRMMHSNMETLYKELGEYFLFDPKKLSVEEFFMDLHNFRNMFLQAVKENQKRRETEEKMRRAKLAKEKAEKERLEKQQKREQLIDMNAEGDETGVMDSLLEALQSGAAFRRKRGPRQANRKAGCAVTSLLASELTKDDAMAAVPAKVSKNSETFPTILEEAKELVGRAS
UniProt Q9UHB6: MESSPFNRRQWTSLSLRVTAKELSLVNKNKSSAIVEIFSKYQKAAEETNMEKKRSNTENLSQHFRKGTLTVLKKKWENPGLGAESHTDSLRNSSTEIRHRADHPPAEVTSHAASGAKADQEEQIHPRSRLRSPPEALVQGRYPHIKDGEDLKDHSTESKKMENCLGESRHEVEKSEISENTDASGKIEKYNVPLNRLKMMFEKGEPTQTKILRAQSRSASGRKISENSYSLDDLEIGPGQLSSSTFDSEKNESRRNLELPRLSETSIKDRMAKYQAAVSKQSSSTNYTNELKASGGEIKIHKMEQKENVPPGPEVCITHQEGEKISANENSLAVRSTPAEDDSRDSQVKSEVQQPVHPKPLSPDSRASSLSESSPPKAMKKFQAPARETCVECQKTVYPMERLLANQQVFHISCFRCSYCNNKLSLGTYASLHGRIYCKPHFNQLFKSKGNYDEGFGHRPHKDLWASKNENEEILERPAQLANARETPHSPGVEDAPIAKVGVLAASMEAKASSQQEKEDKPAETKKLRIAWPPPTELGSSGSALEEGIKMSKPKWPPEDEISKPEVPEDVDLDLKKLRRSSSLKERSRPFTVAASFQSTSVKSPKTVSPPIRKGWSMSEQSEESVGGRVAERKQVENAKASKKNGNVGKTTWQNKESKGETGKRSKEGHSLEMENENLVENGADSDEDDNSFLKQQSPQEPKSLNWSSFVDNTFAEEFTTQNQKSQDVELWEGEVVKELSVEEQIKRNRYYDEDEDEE

Flag-Rab40b-4A [2] = molecular target: T1, Flag-Rab40b-4A; assay: affinity purification with mass spectrometry; remark: listed apart in the source

Molecule: DIAPH1 (endogenous) (from UniProt O60610 1-1272)
binding (Flag-Rab40b-4A [1]): binds

B2: ARHGAP19 (endogenous) (protein, UniProt Q14CB8 1-494)
chain: MATEAQSEGEVPARESGRSDAICSFVICNDSSLRGQPIIFNPDFFVEKLRHEKPEIFTELVVSNITRLIDLPGTELAQLMGEVDLKLPGGAGPASGFFRSLMSLKRKEKGVIFGSPLTEEGIAQIYQLIEYLHKNLRVEGLFRVPGNSVRQQILRDALNNGTDIDLESGEFHSNDVATLLKMFLGELPEPLLTHKHFNAHLKIADLMQFDDKGNKTNIPDKDRQIEALQLLFLILPPPNRNLLKLLLDLLYQTAKKQDKNKMSAYNLALMFAPHVLWPKNVTANDLQENITKLNSGMAFMIKHSQKLFKAPAYIRECARLHYLGSRTQASKDDLDLIASCHTKSFQLAKSQKRNRVDSCPHQEETQHHTEEALRELFQHVHDMPESAKKKQLIRQFNKQSLTQTPGREPSTSQVQKRARSRSFSGLIKRKVLGNQMMSEKKKKNPTPESVAIGELKGTSKENRNLLFSGSPAVTMTPTRLKWSEGKKEGKKGFL
binding (Flag-Rab40b-4A [2]): binds

The next lines start with the values.

binding (Flag-Rab40b-4A [1]): binds
Molecule: EPLIN (Epithelial Protein Lost In Neoplasia), endogenous (from UniProt Q9UHB6 1-759)

binding (Flag-Rab40b-4A [2]): binds
B1: ARHGAP42 (endogenous) (protein, UniProt A6NI28 1-874)
chain: MGLPTLEFSDSYLDSPDFRERLQCHEIELERTNKFIKELIKDGSLLIGALRNLSMAVQKFSQSLQDFQFECIGDAETDDEISIAQSLKEFARLLIAVEEERRRLIQNANDVLIAPLEKFRKEQIGAAKDGKKKFDKESEKYYSILEKHLNLSAKKKESHLQEADTQIDREHQNFYEASLEYVFKIQEVQEKKKFEFVEPLLSFLQGLFTFYHEGYELAQEFAPYKQQLQFNLQNTRNNFESTRQEVERLMQRMKSANQDYRPPSQWTMEGYLYVQEKRPLGFTWIKHYCTYDKGSKTFTMSVSEMKSSGKMNGLVTSSPEMFKLKSCIRRKTDSIDKRFCFDIEVVERHGIITLQAFSEANRKLWLEAMDGKEPIYTLPAIISKKEEMYLNEAGFNFVRKCIQAVETRGITILGLYRIGGVNSKVQKLMNTTFSPKSPPDIDIDIELWDNKTITSGLKNYLRCLAEPLMTYKLHKDFIIAVKSDDQNYRVEAVHALVHKLPEKNREMLDILIKHLVKVSLHSQQNLMTVSNLGVIFGPTLMRAQEETVAAMMNIKFQNIVVEILIEHYEKIFHTAPDPSIPLPQPQSRSGSRRTRAICLSTGSRKPRGRYTPCLAEPDSDSYSSSPDSTPMGSIESLSSHSSEQNSTTKSASCQPREKSGGIPWIATPSSSNGQKSLGLWTTSPESSSREDATKTDAESDCQSVASVTSPGDVSPPIDLVKKEPYGLSGLKRASASSLRSISAAEGNKSYSGSIQSLTSVGSKETPKASPNPDLPPKMCRRLRLDTASSNGYQRPGSVVAAKAQLFENVGSPKPVSSGRQAKAMYSCKAEHSHELSFPQGAIFSNVYPSVEPGWLKATYEGKTGLVPENYVVFL
